Measured values published in paper PMC10230156.

By UniProt entry, the sequences of proteins in these tests, tags left out. Residues count along the entry.
UniProt P12314, residues 16-374: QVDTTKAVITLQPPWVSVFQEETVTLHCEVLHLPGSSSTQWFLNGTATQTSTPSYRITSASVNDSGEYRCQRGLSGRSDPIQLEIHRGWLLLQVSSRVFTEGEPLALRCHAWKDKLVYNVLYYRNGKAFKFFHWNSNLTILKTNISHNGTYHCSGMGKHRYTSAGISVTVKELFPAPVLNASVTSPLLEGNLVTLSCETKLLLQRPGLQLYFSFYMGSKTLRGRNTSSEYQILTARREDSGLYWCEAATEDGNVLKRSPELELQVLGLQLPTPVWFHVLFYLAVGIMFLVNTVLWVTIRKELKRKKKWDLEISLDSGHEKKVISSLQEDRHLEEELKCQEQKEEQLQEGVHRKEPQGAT

Biological target: T1, Histidine‐rich glycoprotein (His-HRG) (UniProt P04196)
T1 sequence: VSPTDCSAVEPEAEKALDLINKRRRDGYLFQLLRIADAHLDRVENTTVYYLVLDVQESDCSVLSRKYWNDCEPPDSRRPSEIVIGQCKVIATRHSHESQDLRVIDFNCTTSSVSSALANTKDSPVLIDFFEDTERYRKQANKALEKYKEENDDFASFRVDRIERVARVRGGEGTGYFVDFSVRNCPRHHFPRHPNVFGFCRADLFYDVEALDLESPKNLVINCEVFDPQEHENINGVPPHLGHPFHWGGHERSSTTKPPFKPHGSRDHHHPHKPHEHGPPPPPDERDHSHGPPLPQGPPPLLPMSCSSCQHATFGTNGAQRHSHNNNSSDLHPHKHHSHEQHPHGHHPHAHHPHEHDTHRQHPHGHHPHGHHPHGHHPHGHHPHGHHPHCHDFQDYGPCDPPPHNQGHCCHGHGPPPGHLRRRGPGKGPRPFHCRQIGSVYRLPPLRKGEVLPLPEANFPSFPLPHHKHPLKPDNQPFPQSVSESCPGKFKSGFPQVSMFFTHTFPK
Experiment: affinity purification with mass spectrometry; His-pulldown of human neutrophil membrane proteins treated with His-HRG for 8 h, then LC-MS/MS; only the target purified

binding: binds
Substance: FCγR1 of the human neutrophil membrane (from UniProt P12314 16-374) (receptor)

No constants are given. Whether binding was seen depends on the method and setting. Binding seen in cells or lysates may run through a third protein. Here binding means that the protein was enriched with, or labelled near, the bait; the list need not be complete. Sequences can lack the tags named with a protein.
